No constants are given. Whether binding was seen depends on the method and setting. In cells and extracts the contact can be indirect. Some results given as binding are weak or reduced against the parent protein; the word gives no strength.
Assays:
[1] = biological target: MBD2 (mouse (endogenous in C2C12)) (UniProt Q9Z2E1); test: proximity ligation; Duolink in situ Red Starter Kit Mouse/Rabbit; endogenous proteins in differentiating C2C12 cells, detected with antibody pairs
[2] = biological target: androgen receptor (mouse (endogenous in C2C12)) (UniProt P19091); test: as above

The chains behind the UniProt entries cited, without tags or fusion partners.
UniProt Q9Z2E1: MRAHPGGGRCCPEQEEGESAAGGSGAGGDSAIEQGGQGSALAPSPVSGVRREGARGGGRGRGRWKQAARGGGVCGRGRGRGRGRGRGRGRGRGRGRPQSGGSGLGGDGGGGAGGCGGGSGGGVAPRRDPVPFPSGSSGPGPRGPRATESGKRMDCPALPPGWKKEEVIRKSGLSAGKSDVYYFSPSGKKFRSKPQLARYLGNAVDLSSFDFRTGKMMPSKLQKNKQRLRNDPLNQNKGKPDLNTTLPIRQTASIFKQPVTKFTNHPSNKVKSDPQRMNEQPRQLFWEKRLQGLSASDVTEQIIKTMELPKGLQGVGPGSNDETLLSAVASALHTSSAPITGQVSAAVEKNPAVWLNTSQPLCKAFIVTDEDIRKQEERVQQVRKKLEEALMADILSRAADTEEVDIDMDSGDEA
UniProt P19091: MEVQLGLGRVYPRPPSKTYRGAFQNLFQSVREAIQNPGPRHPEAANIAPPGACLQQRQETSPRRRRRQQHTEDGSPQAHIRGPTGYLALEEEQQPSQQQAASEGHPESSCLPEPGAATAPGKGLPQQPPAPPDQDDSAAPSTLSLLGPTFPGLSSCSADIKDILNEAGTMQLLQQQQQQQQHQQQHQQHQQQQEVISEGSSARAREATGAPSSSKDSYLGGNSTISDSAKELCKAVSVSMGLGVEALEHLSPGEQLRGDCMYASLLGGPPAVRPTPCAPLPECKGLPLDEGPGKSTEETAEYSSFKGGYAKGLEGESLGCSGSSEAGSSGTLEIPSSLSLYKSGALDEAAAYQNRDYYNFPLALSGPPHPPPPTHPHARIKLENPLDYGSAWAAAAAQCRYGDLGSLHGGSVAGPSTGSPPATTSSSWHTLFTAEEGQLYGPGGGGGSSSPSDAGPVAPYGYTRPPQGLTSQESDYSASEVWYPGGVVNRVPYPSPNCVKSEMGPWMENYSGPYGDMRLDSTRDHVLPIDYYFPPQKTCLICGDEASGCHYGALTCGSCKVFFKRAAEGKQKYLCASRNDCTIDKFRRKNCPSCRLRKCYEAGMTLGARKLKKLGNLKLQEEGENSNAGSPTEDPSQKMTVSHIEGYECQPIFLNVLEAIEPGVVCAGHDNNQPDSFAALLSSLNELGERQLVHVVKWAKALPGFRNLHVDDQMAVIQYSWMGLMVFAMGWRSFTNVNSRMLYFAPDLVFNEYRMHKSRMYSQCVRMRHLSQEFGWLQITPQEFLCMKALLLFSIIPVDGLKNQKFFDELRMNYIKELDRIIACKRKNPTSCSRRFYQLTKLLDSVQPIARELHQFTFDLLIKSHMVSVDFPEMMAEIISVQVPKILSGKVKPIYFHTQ
UniProt P34152: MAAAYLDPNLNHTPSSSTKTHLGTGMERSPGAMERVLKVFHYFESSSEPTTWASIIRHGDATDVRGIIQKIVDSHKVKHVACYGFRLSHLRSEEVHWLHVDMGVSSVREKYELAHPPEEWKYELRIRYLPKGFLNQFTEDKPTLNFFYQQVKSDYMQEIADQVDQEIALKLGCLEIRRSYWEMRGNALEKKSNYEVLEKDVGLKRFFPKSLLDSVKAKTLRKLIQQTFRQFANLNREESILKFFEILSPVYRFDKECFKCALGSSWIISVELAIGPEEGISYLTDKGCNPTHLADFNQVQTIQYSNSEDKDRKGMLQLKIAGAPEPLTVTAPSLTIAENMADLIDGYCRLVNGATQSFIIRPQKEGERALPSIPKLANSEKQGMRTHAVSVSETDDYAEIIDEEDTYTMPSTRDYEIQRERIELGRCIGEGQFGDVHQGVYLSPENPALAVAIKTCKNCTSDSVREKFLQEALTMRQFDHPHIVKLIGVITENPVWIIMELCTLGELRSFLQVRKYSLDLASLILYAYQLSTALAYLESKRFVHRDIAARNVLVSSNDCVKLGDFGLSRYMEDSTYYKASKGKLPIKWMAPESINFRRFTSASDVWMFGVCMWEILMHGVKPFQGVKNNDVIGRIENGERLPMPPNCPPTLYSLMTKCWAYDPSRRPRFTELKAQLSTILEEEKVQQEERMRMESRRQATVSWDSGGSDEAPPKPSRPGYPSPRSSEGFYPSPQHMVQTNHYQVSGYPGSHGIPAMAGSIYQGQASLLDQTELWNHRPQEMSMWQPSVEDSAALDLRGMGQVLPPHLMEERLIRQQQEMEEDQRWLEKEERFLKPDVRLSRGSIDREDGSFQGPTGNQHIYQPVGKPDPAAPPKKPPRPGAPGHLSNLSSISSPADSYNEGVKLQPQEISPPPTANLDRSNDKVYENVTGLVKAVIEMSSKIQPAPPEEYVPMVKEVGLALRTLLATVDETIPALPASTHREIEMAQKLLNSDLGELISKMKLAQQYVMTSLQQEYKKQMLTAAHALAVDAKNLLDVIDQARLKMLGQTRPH
UniProt Q62219: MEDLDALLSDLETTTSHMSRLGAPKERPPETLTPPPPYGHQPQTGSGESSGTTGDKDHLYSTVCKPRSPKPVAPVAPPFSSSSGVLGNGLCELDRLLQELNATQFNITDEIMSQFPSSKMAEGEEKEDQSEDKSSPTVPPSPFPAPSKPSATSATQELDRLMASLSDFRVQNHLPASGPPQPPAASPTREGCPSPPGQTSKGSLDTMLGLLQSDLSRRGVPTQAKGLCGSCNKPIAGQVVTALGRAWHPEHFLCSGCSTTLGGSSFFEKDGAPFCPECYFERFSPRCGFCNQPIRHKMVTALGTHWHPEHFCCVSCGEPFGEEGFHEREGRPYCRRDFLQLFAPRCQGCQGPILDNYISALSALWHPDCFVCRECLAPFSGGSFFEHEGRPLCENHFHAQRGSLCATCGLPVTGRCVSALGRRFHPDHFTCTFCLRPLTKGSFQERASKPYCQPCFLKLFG

binding [1]	binding [2]	Substance
binds		FAK (from UniProt P34152 1-1052)
	binds	Hic-5 (from UniProt Q62219 1-461)

Reference: paper PMC10476967
